According to PubChem BioAssay AID504467 (National Center for Advancing Translational Sciences (NCATS), 2011):
Among all 330,000 compounds or so, about 7,700 (2.3%) were called active. Inconclusive means that the source gave no clear call. Such entries were picked first, then a sample of the others. Calls follow the shape of the dose curve; as a rule, active = well fitted inhibition curve with a large enough effect; inconclusive = small, poorly fitted or top-dose-only effect, or effect the other way; inactive = flat fitted curve, though single readings scatter. Potencies beside an inconclusive call are fits to weak or partial responses and may not hold up.

Assay: qHTS screen for small molecules that inhibit ELG1-dependent DNA repair in human embryonic kidney (HEK293T) cells expressing luciferase-tagged ELG1; also: nearly all actives have a fitted effect of over 55% in size
Details: HEK293T ELG1-luciferase reporter, luminescence, 16 h, DNA damage induced by 5-fluorouridine; series mostly up to 46.1 µM
Method in brief: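 DMSO vehicle served as the neutral condition. Each well held 2,000 cells given 5-fluorouridine plus compound; after 16 hr at 37 °C/5% CO2, ONE-Glo was added and luciferase measured 30 min later.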
Potency is read from the fitted curve at half-maximal effect.

Structure (SMILES) | Potency
COc1ccc(CC(=O)Nc2ccccc2C(C)=O)cc1S(=O)(=O)N1CCOCC1 | inactive
O=C(NNc1ccc(O)cc1)c1ccc(Br)cc1 | active: 5.8 µM
CC[n+]1c(/C=C/Nc2ccccc2)sc2ccccc21 | inactive
CCOC(=O)c1c(NC(=O)CSc2nnc(C)s2)sc2c1CCN(C)C2 | inactive
Cc1cccc(C)c1NC(=O)c1cnccn1 | inactive
O=C(NCc1ccco1)C1CCN(c2nc3ccccc3n2Cc2ccccc2F)CC1 | inconclusive: 23.1 µM [inhibitor, partial curve, poor fit]
CCOc1cccc(NC(=O)/C(C#N)=C/c2cccnc2)c1 | inactive
COc1ccccc1C(=O)Nc1ccnn1C1CCN(Cc2cc(C)c(C)cc2C)CC1 | active: 23.1 µM
COCCCNC(=O)/C=C1\Sc2ccccc2N(Cc2ccccc2F)C1=O | inactive
O=C(Nc1ccc(F)cc1F)c1cc(-c2ccco2)on1 | inconclusive: 29.1 µM [activator, single point]
O=C(Nc1ccc(N2CCOCC2)c(Cl)c1)c1ccccc1Cl | inconclusive: 9.2 µM [activator, partial curve]
COc1ccccc1NC(=O)C1=C(C)NC(=O)NC1c1ccccc1[N+](=O)[O-] (stereo not drawn) | inconclusive: 23.1 µM [activator, partial curve]
O=C(NC1CC1)C1CCN(S(=O)(=O)c2cc([N+](=O)[O-])ccc2Cl)CC1 | inconclusive: 0.259 µM [activator, full curve, poor fit]
CC1CC(=O)NN1C(=O)c1ccccc1 (stereo not drawn) | inactive
CCOC(=O)[C@@H]1[C@H]2COc3cc(OC)ccc3[C@H]2N2C(=O)N(c3cccc(Cl)c3)C(=O)[C@]12C | inconclusive: 9.2 µM [inhibitor, partial curve]
CCc1cccc(C)c1NC(=S)NCc1ccc2[nH]c(C)cc2c1 | inconclusive: 29.1 µM [inhibitor, single point]
CCOC(=O)c1nn(-c2ccccc2)c(=O)c2c(N)scc12 | inactive
CC(C)OC(=O)CSc1nnc(-c2cnccn2)n1C | inconclusive: 29.1 µM [activator, single point]
CC1CN(S(=O)(=O)c2cc(C(=O)NCCC3=CCCCC3)ccc2Cl)CC(C)O1 (stereo not drawn) | inconclusive: 1.64 µM [activator, full curve, poor fit]
O=C1c2ccccc2C(=O)c2c1oc(C(F)(F)F)c2C(=O)c1ccccc1 | inconclusive: 18.4 µM [inhibitor, partial curve, poor fit]
Cc1ccc(NC(=O)CN(C)C(=O)c2cccc(-n3cccc3)c2)cc1 | inactive
O=C(CN(Cc1ccco1)Cc1ccco1)Nc1cc(S(=O)(=O)N2CCCCC2)ccc1Cl | active: 25.9 µM
CC(=O)Nc1ccc(OC(=O)c2cc3ccccc3oc2=O)cc1 | inconclusive: 32.6 µM [activator, partial curve, poor fit]

Structure (SMILES) | Potency
C[C@@H](NC(=O)c1nc[nH]c1C(=O)OCc1ccccc1)c1ccccc1 | inconclusive: 16.4 µM [inhibitor, single point]
CC(=O)c1cc2c(cc1NC(=O)Cn1nc(-c3ccc(F)cc3)ccc1=O)OCO2 | inconclusive: 18.3 µM [inhibitor, partial curve, poor fit]
Cc1cc(C)n(-c2nc(SCC(=O)Nc3nccs3)c3c4c(sc3n2)COC(C)(C)C4)n1 | inconclusive: 5.8 µM [inhibitor, full curve]
CCS(=O)(=O)c1ccc2oc(SCC(=O)NCCc3ccc(F)cc3)nc2c1 | inconclusive: 29.1 µM [inhibitor, partial curve, poor fit]
CCOC(=O)c1n[nH]n(-c2cc(Cl)cc(Cl)c2)c1=O | inconclusive: 4.61 µM [inhibitor, full curve, poor fit]
O=C(COC(=O)c1ccccc1OCc1ccc(Cl)cc1)NCC1CCCO1 (stereo not drawn) | inconclusive: 20.6 µM [inhibitor, partial curve]
Cn1cc(/C=C2\SC(=O)N(c3ccccc3)C2=O)c2ccccc21 | inconclusive: 2.06 µM [activator, full curve]
NNc1ccc2nncn2n1 | inconclusive: 20.6 µM [activator, partial curve]
Cc1cccc(CN2CCN(C(=O)c3cccc4ccccc34)CC2)c1 | inconclusive: 35.5 µM [inhibitor, single point]
CC(=O)C1=C(C)OC(N)=C(C#N)C1c1cc2cc(C)c(C)cc2nc1Cl (stereo not drawn) | inconclusive: 7.31 µM [activator, partial curve]
Cc1cccc2cc3c(N)c(C(=O)N4CCCc5ccccc54)sc3nc12 | inconclusive: 0.461 µM [inhibitor, full curve, poor fit]
CCCCN(C)C(=O)Cn1cnc2sc(C)c(S(=O)(=O)N3CCN(c4ccccc4OC)CC3)c2c1=O | active: 5.17 µM
CCn1ccnc1CC1COc2ccccc2O1 (stereo not drawn) | inactive
Cc1cc(N)n2nc(-c3ccc(C(C)(C)C)cc3)cc2n1 | inconclusive: 1.84 µM [activator, partial curve]
CC[C@]12c3[nH]c4cc(-c5ccco5)ccc4c3CCN1C(=O)[C@@H](CC(=O)NCC13CC4CC(CC(C4)C1)C3)C[C@@H]2C(=O)N1CCN(C(=O)c2ccco2)CC1 | inactive
CCCCn1c(=O)c(CCC(=O)OCC(=O)NC(=O)NCCOC)nc2ccccc21 | inactive
O=[N+]([O-])c1ccc(O)c(/C=N/Nc2ccccc2[N+](=O)[O-])c1 | active: 18.3 µM
CC(C)CCNC(=O)C(=O)NC1CCCC1 | inconclusive: 16.4 µM [activator, partial curve]
CC1=C(C(=O)OCc2ccccc2)C(/C=C/c2ccccc2)NC(=S)N1 (stereo not drawn) | inconclusive: 29.1 µM [inhibitor, partial curve, poor fit]
C/C(=N\NC(=O)C1CC1)c1ccccc1O | inconclusive: 20.6 µM [activator, single point]
C=C(C)CSc1nc2c(c(=O)[nH]c(=O)n2C)n1Cc1ccccc1 | inconclusive: 29.1 µM [inhibitor, single point]
c1ccc(-c2ccc(-c3nccc4ccccc34)[nH]2)cc1 | inconclusive: 0.291 µM [activator, full curve]
Cc1cc(=O)n2nc(N3CCC(C(=O)NCc4ccc(Cl)cc4)CC3)sc2n1 | inactive

Structure (SMILES) | Potency
Cc1nc2ccccn2c1C(=O)Nc1ccc(Cl)cc1 | inconclusive: 20.6 µM [activator, partial curve]
CC(=O)c1sc(NC(=O)COc2ccc(Cl)cc2Cl)nc1C | inconclusive: 2.59 µM [activator, partial curve]
CC(=O)Nc1cc(NC(C)=O)cc(C(=O)NCC2(N3CCOCC3)CCCCC2)c1 | inactive
Cc1occc1-c1nnc(SCC(=O)Nc2nccs2)n1CCc1ccccc1 | inconclusive: 20.6 µM [inhibitor, single point]
CN(C)c1ccc(C(=O)c2ccccc2)cc1 | inconclusive: 18.4 µM [activator, partial curve]
Clc1ccccc1OCc1nnc(-c2ccccc2)o1 | inconclusive: 23.1 µM [activator, partial curve]
O=C(NC12CC3CC(CC(C3)C1)C2)c1ccc(-c2ccc(Cl)cc2)o1 | inconclusive: 8.2 µM [activator, partial curve]
O=C(CN1C(=O)c2ccccc2S1(=O)=O)NC1CCCCCC1 | inconclusive: 29.1 µM [activator, single point]
CNC(=S)NNC(=O)c1sccc1OCc1ccc(C)cc1 | inconclusive: 0.0206 µM [activator, full curve, poor fit]
COC(=O)c1ccc(-c2nn(C)c(=O)c3ccccc23)cc1 | inconclusive: 29.1 µM [activator, single point]
CCCCNc1c(-c2ccc(-c3cccc(Cl)c3)cc2)nc2ccccn12 | inconclusive: 35.5 µM [inhibitor, single point]
Oc1c(Br)cc(/C=N/n2c(-c3ccccc3)n[nH]c2=S)cc1Br | inactive
CN(C)/C=N/c1nc(-c2ccc3ccccc3c2)cs1 | inconclusive: 6.51 µM [activator, partial curve]
CC(=O)c1ccc(N2CCN(C(=O)c3ccc(C(=O)c4ccccc4)cc3)CC2)cc1 | inconclusive: 29.1 µM [inhibitor, single point]
N#C/C(=C\c1ccc(-c2ccccc2Cl)o1)C(=O)Nc1nc2ccccc2s1 | inconclusive: 20.6 µM [activator, single point]
CC(C)Cn1c(-c2cc(Br)ccc2F)nc2c1c(=O)[nH]c(=O)n2CC(C)C | inconclusive: 29.1 µM [inhibitor, single point]
COc1ccc(C2=Nn3c(nnc3-c3ccccc3Cl)SC2)cc1OC1CCOC1 (stereo not drawn) | inconclusive: 23.1 µM [activator, single point]
COc1ccc(C)cc1NC(=O)C(OC(=O)C1CC1)c1ccccc1 (stereo not drawn) | inactive
COc1ccc(-c2cc(C(F)F)n3ncc(C(=O)Nc4c(C)n(C)n(-c5ccccc5)c4=O)c3n2)cc1 | inconclusive: 2.59 µM [inhibitor, full curve]
CCc1ccc(C2=NN(CCC(=O)NC3CC3)C(=O)CC2)cc1 | inactive
O=C(NCCc1cccs1)C1CC(c2ccc([N+](=O)[O-])cc2)=NO1 (stereo not drawn) | inconclusive: 4.61 µM [activator, full curve]
NC(=O)C1(N2CCCCC2)CCN(CC(=O)Nc2cc(Cl)ccc2Cl)CC1 | inconclusive: 16.4 µM [inhibitor, single point]

Laid out differently: results already given
Structure (SMILES)	Potency
Cc1occc1-c1nnc(SCC(=O)Nc2nccs2)n1CCc1ccccc1	inconclusive: 20.6 µM [inhibitor, single point]
CN(C)c1ccc(C(=O)c2ccccc2)cc1	inconclusive: 18.4 µM [activator, partial curve]
